The target of this test is JmjC domain-containing 5 (JMJD5), bait of the mass spectrometry-based proteomic analysis (human) (UniProt Q8N371). The test can be described thus: affinity purification with mass spectrometry; mass spectrometry-based proteomic analysis of JMJD5-associated proteins; bait, cells and conditions not told.

The chains behind the UniProt entries cited, without tags or fusion partners.
UniProt Q8N371: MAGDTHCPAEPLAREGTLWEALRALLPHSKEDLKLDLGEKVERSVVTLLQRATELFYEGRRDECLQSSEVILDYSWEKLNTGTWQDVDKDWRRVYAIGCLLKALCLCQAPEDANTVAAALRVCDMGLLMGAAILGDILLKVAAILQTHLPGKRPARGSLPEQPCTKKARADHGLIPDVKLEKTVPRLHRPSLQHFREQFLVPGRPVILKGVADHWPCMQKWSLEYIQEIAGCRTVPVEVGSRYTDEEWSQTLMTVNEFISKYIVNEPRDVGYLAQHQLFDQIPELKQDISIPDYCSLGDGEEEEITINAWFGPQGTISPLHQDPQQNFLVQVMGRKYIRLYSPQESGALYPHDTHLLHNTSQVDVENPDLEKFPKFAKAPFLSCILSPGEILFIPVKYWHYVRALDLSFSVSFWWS
UniProt Q7Z6Z7: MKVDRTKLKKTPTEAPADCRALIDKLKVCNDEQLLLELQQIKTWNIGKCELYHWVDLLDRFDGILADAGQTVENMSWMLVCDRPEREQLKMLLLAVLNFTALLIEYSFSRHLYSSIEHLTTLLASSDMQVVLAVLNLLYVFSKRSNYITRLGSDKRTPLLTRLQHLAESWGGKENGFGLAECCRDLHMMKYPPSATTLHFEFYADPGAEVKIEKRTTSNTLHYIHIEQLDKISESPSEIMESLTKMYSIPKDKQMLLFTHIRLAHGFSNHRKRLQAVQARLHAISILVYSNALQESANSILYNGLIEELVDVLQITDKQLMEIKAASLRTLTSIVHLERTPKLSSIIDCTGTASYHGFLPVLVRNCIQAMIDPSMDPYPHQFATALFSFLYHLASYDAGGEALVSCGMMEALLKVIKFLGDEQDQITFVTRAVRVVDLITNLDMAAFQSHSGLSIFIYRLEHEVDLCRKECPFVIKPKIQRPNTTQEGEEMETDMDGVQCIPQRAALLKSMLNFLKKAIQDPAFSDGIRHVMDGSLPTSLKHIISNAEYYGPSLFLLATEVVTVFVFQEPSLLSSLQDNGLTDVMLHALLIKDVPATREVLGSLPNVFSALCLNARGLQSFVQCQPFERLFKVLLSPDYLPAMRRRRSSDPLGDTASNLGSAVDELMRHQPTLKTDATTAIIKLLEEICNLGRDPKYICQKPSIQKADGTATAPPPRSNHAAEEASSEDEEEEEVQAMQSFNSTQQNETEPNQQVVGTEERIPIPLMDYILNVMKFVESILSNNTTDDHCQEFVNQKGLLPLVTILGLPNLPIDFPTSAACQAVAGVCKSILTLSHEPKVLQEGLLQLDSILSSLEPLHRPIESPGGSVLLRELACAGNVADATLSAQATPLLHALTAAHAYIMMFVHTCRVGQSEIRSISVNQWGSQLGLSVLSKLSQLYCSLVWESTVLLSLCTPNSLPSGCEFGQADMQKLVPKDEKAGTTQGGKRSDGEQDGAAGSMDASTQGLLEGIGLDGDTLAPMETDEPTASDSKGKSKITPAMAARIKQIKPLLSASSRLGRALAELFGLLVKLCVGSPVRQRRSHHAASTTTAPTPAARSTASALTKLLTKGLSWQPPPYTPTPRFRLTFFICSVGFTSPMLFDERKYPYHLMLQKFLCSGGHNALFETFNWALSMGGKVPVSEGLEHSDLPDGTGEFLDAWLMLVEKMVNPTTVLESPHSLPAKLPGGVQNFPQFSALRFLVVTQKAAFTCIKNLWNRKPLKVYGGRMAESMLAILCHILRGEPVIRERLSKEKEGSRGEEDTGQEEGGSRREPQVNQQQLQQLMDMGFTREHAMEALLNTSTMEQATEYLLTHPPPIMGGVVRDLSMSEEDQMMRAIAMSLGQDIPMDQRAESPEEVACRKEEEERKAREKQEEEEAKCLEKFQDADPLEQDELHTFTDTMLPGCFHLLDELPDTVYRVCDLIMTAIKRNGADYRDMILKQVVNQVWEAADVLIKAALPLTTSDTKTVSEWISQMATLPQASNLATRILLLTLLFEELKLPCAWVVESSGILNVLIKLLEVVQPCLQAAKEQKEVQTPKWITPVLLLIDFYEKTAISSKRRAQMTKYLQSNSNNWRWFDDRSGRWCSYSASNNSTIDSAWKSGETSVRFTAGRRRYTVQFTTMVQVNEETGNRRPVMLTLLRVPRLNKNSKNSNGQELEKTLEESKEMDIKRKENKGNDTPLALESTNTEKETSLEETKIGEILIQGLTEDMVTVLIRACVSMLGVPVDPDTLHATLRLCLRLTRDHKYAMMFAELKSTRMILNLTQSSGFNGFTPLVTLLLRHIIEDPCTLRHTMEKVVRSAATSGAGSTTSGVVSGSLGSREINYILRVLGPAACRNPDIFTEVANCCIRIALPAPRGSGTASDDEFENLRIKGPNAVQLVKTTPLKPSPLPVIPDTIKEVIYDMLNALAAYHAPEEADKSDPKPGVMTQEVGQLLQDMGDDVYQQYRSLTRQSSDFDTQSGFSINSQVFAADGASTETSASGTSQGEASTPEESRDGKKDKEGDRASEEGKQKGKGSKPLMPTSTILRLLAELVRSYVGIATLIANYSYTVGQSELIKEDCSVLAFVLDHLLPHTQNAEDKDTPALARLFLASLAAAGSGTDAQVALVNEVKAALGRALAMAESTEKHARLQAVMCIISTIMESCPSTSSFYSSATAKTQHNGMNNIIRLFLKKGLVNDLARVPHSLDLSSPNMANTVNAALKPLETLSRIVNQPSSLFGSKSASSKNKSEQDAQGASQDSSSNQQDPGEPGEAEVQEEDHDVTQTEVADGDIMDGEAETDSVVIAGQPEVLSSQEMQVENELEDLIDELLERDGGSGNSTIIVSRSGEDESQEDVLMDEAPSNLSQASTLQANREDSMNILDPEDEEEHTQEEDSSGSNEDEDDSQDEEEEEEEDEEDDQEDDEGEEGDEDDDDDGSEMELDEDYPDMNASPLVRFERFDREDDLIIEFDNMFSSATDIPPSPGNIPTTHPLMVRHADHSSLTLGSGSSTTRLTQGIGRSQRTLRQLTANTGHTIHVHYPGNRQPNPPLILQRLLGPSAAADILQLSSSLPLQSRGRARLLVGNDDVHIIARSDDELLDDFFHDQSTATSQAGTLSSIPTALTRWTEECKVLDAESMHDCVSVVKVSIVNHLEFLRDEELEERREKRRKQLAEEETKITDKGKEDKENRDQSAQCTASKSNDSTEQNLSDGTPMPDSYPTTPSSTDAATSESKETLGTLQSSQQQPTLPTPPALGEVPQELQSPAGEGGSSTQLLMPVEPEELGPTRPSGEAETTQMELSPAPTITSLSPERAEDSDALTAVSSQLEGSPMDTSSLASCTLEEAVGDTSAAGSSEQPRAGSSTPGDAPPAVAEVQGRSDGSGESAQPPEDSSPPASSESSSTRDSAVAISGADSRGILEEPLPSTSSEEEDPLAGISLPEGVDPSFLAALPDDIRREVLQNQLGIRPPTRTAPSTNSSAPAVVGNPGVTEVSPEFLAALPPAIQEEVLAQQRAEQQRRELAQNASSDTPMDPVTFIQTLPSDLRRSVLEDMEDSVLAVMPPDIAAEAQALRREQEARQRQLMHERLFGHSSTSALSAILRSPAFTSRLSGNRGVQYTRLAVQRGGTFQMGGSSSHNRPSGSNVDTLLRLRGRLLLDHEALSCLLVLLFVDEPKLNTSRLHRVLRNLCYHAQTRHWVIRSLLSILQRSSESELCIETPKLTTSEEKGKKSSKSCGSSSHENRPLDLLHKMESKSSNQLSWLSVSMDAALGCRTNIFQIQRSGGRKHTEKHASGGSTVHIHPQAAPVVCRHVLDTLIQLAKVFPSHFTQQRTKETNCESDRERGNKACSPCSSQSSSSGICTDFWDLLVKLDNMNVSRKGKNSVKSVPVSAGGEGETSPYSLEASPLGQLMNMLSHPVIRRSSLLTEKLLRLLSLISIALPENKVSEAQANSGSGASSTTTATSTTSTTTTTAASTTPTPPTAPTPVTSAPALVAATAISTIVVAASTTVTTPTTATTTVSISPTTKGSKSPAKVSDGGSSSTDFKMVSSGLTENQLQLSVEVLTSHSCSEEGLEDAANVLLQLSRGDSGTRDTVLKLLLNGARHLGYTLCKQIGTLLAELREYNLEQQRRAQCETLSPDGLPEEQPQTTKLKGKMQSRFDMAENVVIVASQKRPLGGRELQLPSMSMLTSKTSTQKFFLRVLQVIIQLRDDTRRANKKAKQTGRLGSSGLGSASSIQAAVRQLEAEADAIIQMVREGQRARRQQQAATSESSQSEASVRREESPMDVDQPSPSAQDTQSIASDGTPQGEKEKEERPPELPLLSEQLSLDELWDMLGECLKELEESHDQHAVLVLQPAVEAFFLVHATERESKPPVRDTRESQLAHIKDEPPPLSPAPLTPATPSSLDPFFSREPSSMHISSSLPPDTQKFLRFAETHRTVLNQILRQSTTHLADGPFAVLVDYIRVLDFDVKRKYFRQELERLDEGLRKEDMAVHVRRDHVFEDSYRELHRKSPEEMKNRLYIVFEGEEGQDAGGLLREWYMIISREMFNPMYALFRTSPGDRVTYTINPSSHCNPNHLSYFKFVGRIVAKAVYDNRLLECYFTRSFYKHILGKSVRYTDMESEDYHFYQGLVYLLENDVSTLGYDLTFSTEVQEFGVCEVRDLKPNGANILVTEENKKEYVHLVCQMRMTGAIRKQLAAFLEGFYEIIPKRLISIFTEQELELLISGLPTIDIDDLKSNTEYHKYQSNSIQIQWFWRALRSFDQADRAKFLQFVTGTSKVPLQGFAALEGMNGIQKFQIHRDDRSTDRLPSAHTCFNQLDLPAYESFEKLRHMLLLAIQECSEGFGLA

Results are given in words; binding and its absence hold for the method and conditions named. In cells and extracts the contact can be indirect. A yes stands for co-enrichment or nearness to the bait. Other partners may have been found.

Regarding “HECT-domain E3 ligase HUWE1, found with JMJD5 by mass spectrometry (from UniProt Q7Z6Z7 1-4374) (enzyme)”, the binding entry is “binds”.

Values taken from paper PMC10562424.
